The record followed here is publication PMC7862700.

The list shows a part of the results, in another mix than the full data. At the low end of the ranking, values are background and their order means little.

The assay addresses SPI1 (UniProt P17947). Nature of the assay: DAPPL (digital affinity profiling via proximity ligation, sequencing). To be noted: 10 mM Tris-HCl pH 7.5, 50 mM NaCl, 1 mM DTT, 4% glycerol, room temperature, 30 min; GST-TFs on glutathione beads, 16-mer random dsDNA library, 0.1% …; high values mean tight binding; double strand, one strand shown; scale: fold enrichment (6-mer frequency, TF over GST control).
On to AGTCCA, for which the binding signal was found to be 0.821. With AGAGTC the figure was 0.403. Sequence ATGTCG yielded a binding signal of 0.666. GCATAA: the binding signal worked out at 0.788. To TGTCGT belongs 0.824; to AGACGC, 0.72. With TGAGTA, the binding signal was found to be 0.452.

CGGAAT had a binding signal of 0.863. With GGGGCG, the binding signal was 0.582. With CGGGAA the figure was 0.872. With GAACGG the figure was 0.572; with CCCAGC, 0.937. For AGGCCG, the binding signal stood at 0.454.

Consider GTCGCA, for which the binding signal was found to be 0.809. To GGCGGA belongs 0.367; to CGGGCC, 0.737; to CACAGG, 0.861. With GCACCA the figure was 0.792; with AGAGGG, 0.745; with CCAGGA, 0.616. With AGGGTA the figure was 0.928. In the case of GTGTAG, the binding signal is 0.687. In turn, AGGCGA displayed a binding signal of 0.502. For the sequence GACAGG, the binding signal was 0.581. With CGGGAG, the binding signal amounted to 0.189. With GGCCAC the figure was 0.867; with CAGTCC, 0.657. For the sequence GAGGCG, the binding signal is 0.355.

In the case of GGGCCC, the binding signal is 0.819.

The sequence GGATAG gave a binding signal of 0.646. GGCCGC: the binding signal came out at 0.796. Sequence GAGGGG returned a binding signal of 0.5. With TTAGAC the figure was 0.847; with GGCGGG, 0.336; with AACGGG, 0.802. TGCCAG showed a binding signal of 0.653. With CGGTGT the figure was 0.613; with AGGACG, 0.45; with AGCTGG, 0.888. GACGAT registered a binding signal of 0.828.
